These results are taken from PubChem BioAssay AID493014 (National Center for Advancing Translational Sciences (NCATS), 2011).

This is one part of the list. Further columns of the screen follow, without active or inactive calls. Most of these compounds were active or inconclusive in the main read-out, so they are no random draw. Potencies come from curve fits of mixed quality, noted in brackets.

This assay is described as follows: qHTS Assay to Find Inhibitors of Chronic Active B-Cell Receptor Signaling. The settings on record: ABC-DLBCL IkBa-CBG/CBR reporter, luminescence ratio (green luciferase fused to IkBa over red control in TMD8 lymphoma cells), 4 h. The gist of the method: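 TMD8 ABC-DLBCL cells carrying doxycycline-inducible green luciferase fused to IkappaBalpha plus unfused red luciferase were exposed to compounds (up to 46 uM) for 4 hrs at 37C. Activity came from the overlap-corrected green/red luminescence ratio.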
(qHTS replaces the single test concentration by a dilution series.)

The mark [1] stands for this setting: measured here: CBR red luminescence, cell number.
The mark [2] stands for this setting: measured here: IkBa-CBG green luminescence.

For orientation: AC50 means the midpoint of the concentration-response curve, whichever way the signal moves. With `C=C(C)c1cccc(C(C)(C)NC(=O)N2CCCC(C(N)=O)C2)c1` (configuration not stated), the AC50 under setting [1] is 32.6 µM [rising, partial curve, poor fit].

With `Cc1ccc(NC(=O)C2C3C=CC(O3)C2C(=O)O)cc1C` (configuration not stated), under setting [1], the AC50 was 12.6 µM [rising, partial curve, poor fit]. The same measure, in the same setting: as for `Cn1c(/C=N/NC(=O)c2ccccc2)nc2ccccc21`, the figure is 11.2 µM [falling, partial curve].

As to `NNC(=O)CNC(c1ccccc1)c1cc(Br)ccc1NC(=O)c1ccccc1Br` (configuration not stated), the concentration at half-maximal activity (AC50) under setting [1] was 15.8 µM [falling, single point].

`Cc1ccc(-c2cc(N)n(-c3ccccc3)n2)cc1`: under setting [1], the AC50 is 20 µM [falling, partial curve, poor fit]. The same measure, in the same setting: as for `C=CCOc1ccc(CNn2c(C)n[nH]c2=S)cc1OC`, the figure is 1.26 µM [falling, full curve]; as for `c1cncc(CNCc2ccco2)c1`, 0.112 µM [rising, full curve, poor fit].

As for `C=CCOc1ccc(C2=NO[C@@H]3[C@@H]4C[C@@H]([C@H]5C(=O)N(C)C(=O)[C@@H]45)[C@H]23)cc1`, under setting [1], the AC50 is 6.31 µM [rising, partial curve, poor fit]. Regarding `Cc1ccc2c(CC(=O)Nc3c(C)n(C)n(-c4ccccc4)c3=O)coc2c1`, the AC50 under setting [1] is 29.1 µM [rising, single point]. Same read-out and setting: as for `Cn1nnnc1SCc1ccccc1F`, the figure is 9.2 µM [rising, partial curve, poor fit]; as for `C[C@H](NC(=O)c1nc[nH]c1C(=O)N1CCc2ccccc2C1)C(=O)OC(C)(C)C`, 35.5 µM [rising, single point]. In the case of `O=C1C(Cl)=C(Nc2ccccc2O)C(=O)N1CCc1ccccc1`, under setting [1], the AC50 was 8.2 µM [falling, partial curve]. The same measure, in the same setting: as for `O=C(NCC(=O)N(c1cccnc1)C(C(=O)NC1CCCC1)c1ccc(F)cc1)c1ccco1` (configuration not stated), the figure is 2.82 µM [rising, single point]; as for `COc1cccc(CNc2cc(CSc3ccc(Cl)cc3)nc(C)n2)c1`, 2.59 µM [falling, full curve, poor fit]; as for `N#CCCN(Cc1cccnc1)C(=O)Nc1ccc(Cl)c(Cl)c1`, 32.6 µM [rising, single point]. As to `Clc1cccc(CN2CCC(Cc3ccccc3)CC2)c1`, under setting [1], the AC50 is 11.2 µM [rising, partial curve, poor fit]. With `COc1cc2c(cc1OC)C(C)N(C(=O)c1cc(C)on1)CC2` (configuration not stated), the concentration at half-maximal activity (AC50) under setting [1] was 11.2 µM [rising, partial curve] and the AC50 under setting [2] was 10 µM [falling, partial curve].

With `CCc1ccc(/C=C2/SC(=S)N(CCC(=O)Nc3ccc(C(=O)O)cc3)C2=O)cc1`, the AC50 under setting [1] was 2.51 µM [falling, partial curve, poor fit]. Regarding `C=C(C)C1CC=C(C)/C(=N/NC(=O)c2ccoc2C)C1` (configuration not stated), the AC50 under setting [1] is 23.1 µM [falling, single point]. The same measure, in the same setting: as for `O=[N+]([O-])c1ccc(N=Nc2ncc[nH]2)cc1`, the figure is 6.31 µM [falling, full curve, poor fit]; as for `CN(C)/C=N/C1=C(C#N)C(c2ccc(Br)cc2)c2ccc3ccccc3c2O1` (configuration not stated), 0.447 µM [rising, full curve, poor fit]; as for `CCN(CC)S(=O)(=O)c1cc([N+](=O)[O-])ccc1N=Nc1c(O)[nH]c2ccccc12`, 20.6 µM [rising, partial curve, poor fit]. As for `CCOc1cc(NC(=S)NCCCN2CCOCC2)c(OCC)cc1NC(=O)C(C)C`, the AC50 under setting [1] is 20.6 µM [rising, single point]. `CC1CC(C)(C)Nc2ccc(OC(=O)c3ccco3)cc21` (configuration not stated): the AC50 under setting [1] is 7.94 µM [falling, partial curve].

As for `CC1(c2ccc(Cl)cc2)NC(=O)N(CC(=O)NCc2ccc(F)cc2)C1=O` (configuration not stated), under setting [1], the concentration at half-maximal activity (AC50) was 35.5 µM [falling, single point]. Consider `NS(=O)(=O)c1ccc(CCNC(=O)c2ccc(C#CC3(O)CCCCC3)cc2)cc1`, for which, under setting [1], the AC50 is 6.31 µM [rising, single point]. For `CCOC(=O)C1=C(N)Oc2cc(O)ccc2C1c1ccc(C)cc1` (configuration not stated), the AC50 under setting [1] is 12.6 µM [falling, partial curve, poor fit].

On to `C/C(=N\OCC(=O)OCC(=O)NCc1ccccc1)c1ccc2c(c1)OCO2`, for which the AC50 under setting [1] was 20.6 µM [rising, single point]. `O=C(NC1=NCCS1)c1ccc2c(c1)C(=O)N(Cc1ccco1)C2=O`: the AC50 under setting [1] was 32.6 µM [falling, single point].

As to `O=C(NN=C1CCCCCC1)c1ccc(Br)o1`, under setting [1], the AC50 was 18.4 µM [falling, single point]. Still for that read-out and setting: as for `CCC(=O)NC(=S)Nc1ccc(NC(=O)c2ccccc2[N+](=O)[O-])cc1`, the figure is 20.6 µM [falling, single point]; as for `CCOc1cc(C=O)cc(Br)c1OCC(=O)NCCc1ccccc1`, 35.5 µM [falling, single point].

On to `N#C/C(=C\c1ccc(F)cc1)c1nc(-c2ccco2)cs1`, for which the AC50 under setting [1] was 0.82 µM [rising, full curve].

Take `CCOc1ccc(C(=O)Nc2ccc3c(c2)C(=O)NC3=O)cc1`: the AC50 under setting [1] is 0.316 µM [falling, full curve]. For `CC1=[N+](C)c2ccc3ccccc3c2C1(C)C`, the AC50 under setting [1] was 0.461 µM [rising, full curve, poor fit]. Consider `N#C/C(=C/c1ccc(N2CCCCCC2)o1)c1ccc(Cl)cc1`, for which the AC50 under setting [1] was 2.31 µM [falling, partial curve, poor fit]. Consider `CCc1nc2ccc(C(=O)N3CCN(c4cccc(Cl)c4)CC3)cc2nc1CC`, for which the half-maximal activity concentration (AC50) under setting [1] was 15.8 µM [falling, single point]. For the compound `CCOC(=O)C1(CC2CCCCO2)CCN(Cc2c(C)cc(C)cc2-n2cccn2)CC1` (configuration not stated), under setting [1], the AC50 was 35.5 µM [falling, single point]. On the same count and under the same terms, as for `N/C(=N\OC(=O)C12CC3CC(CC(C3)C1)C2)c1ccccc1`, the figure is 3.98 µM [falling, partial curve, poor fit]; as for `O=C(O)c1ccc(NC(=O)c2ccc(COc3ccc(Cl)cc3)o2)cc1`, 0.112 µM [rising, full curve, poor fit]. The same measure, in the same setting: as for `Cn1ncc([N+](=O)[O-])c1C(=O)Nc1ccc(-c2ccccc2)cc1`, the figure is 0.178 µM [rising, full curve, poor fit]. Take `CCC(=O)N(CCC(Cc1ccccc1)c1ccco1)Cc1ccco1` (configuration not stated): under setting [1], the AC50 was 35.5 µM [falling, single point]. Same read-out and setting: as for `O=C(CC1NC(=S)NC1=O)c1ccc(Cl)cc1` (configuration not stated), the figure is 5.62 µM [rising, full curve, poor fit]; as for `CCn1ccnc1CN(C)C(=O)c1cc(COc2ccccc2SC)on1`, 5.62 µM [rising, single point]; as for `COc1cc(CC(=O)OCC(=O)NC(C)c2ccccc2)cc(OC)c1OC` (configuration not stated), 16.4 µM [rising, partial curve, poor fit]. In the case of `COc1ccc2[nH]c(-c3cccc(F)c3)cc(=O)c2c1`, the concentration at half-maximal activity (AC50) is 2.31 µM [rising, partial curve, poor fit] under setting [1] and 5.8 µM [falling, single point] under setting [2]. For the compound `O=C(CNC(=O)c1ccc(Cl)cc1)N/N=C/c1cccnc1`, the half-maximal activity concentration (AC50) under setting [1] was 17.8 µM [rising, single point]. Same read-out and setting: as for `CCOc1nc(NCCO)nc(NCCC2=CCCCC2)n1`, the figure is 4.11 µM [rising, full curve, poor fit]. Same read-out and setting: as for `CCOC(=O)Cc1csc(N/N=C\c2ccccc2OC)n1`, the figure is 25.1 µM [falling, single point]; as for `Cc1c(Br)c(C(F)(F)F)nn1CC(=O)NCC1CCCO1` (configuration not stated), 15.8 µM [rising, partial curve, poor fit]. As for `CCCc1cc(N2CCCC2)n2nc(C)c(-c3ccccc3)c2n1`, the AC50 under setting [1] was 1.16 µM [rising, full curve, poor fit]. Same read-out and setting: as for `CCN1c2ccccc2-c2nc3ccccc3n2C1c1ccncc1` (configuration not stated), the figure is 14.1 µM [falling, partial curve]. Regarding `COc1ccc(-c2nnc(SCC(C)C)o2)cc1`, the AC50 under setting [1] was 12.6 µM [falling, single point]. Still for that read-out and setting: as for `NC(=O)CC(NC(=O)Cc1ccc(Br)cc1)c1ccc(NC2CC3CCC2C3)c([N+](=O)[O-])c1` (configuration not stated), the figure is 15.8 µM [falling, single point]; as for `CCCN1C(=O)SC(CC(=O)Nc2ccccc2C)C1=O` (configuration not stated), 29.1 µM [falling, single point]; as for `NS(=O)(=O)c1ccc(CCNCC(=O)N2CCC(Cc3ccccc3)CC2)cc1`, 17.8 µM [falling, partial curve, poor fit]. Same read-out and setting: as for `COc1ccc(NC(=O)c2ccccc2OCc2c(C)noc2C)cc1OC`, the figure is 2.82 µM [rising, full curve, poor fit]. Turning to `CC12C(=O)N(c3ccccc3)C(=O)C1C(c1ccccc1)N1CCCN12` (configuration not stated), the AC50 under setting [1] was 11.2 µM [rising, partial curve, poor fit]. On the same count and under the same terms, as for `Nc1nnc(SCC(=O)Nc2cc(F)ccc2F)s1`, the figure is 5.17 µM [rising, full curve]; as for `CC(/C=C1\SC(=S)N(CCC(=O)Nc2cccc(C(=O)O)c2)C1=O)=C\c1ccccc1`, 11.2 µM [falling, partial curve, poor fit]; as for `COc1ccc(C2C(C(C)=O)=C(O)C(=O)N2CCc2c[nH]c3ccccc23)cc1OC` (configuration not stated), 25.9 µM [falling, partial curve, poor fit]. Same read-out and setting: as for `CCOC(=O)Cc1csc(NC(=O)CCCc2ccccc2)n1`, the figure is 35.5 µM [falling, single point]. In the case of `CCc1ccccc1OCC(=O)Nc1nc(-c2cccnc2)cs1`, the AC50 under setting [2] was 22.4 µM [falling, single point]. Regarding `Cc1cc(C)n(-c2cc(Oc3ccccc3)ncn2)n1`, the AC50 under setting [1] is 2.31 µM [rising, full curve]. With `Cc1nccn1CCC1CCCCN1C(=O)CCc1nnc(-c2ccsc2)o1` (configuration not stated), the AC50 under setting [1] was 1.26 µM [rising, full curve, poor fit].
